Measurements reported in PubChem BioAssay AID493246 (Drosophila RNAi Screening Center, 2011)

Aim: 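Identify essential fly genes by loss of cell viability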 (primary screen)
Cell system: Drosophila Kc and S2R+ cells
Reagent: long dsRNA against Drosophila genes
Measured: 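Raw, unnormalised count of remaining cells in each well; per-plate z-scores of cell number underlie the calls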
Scale: Kc cell number and S2R+ cell number: higher = more cells remaining
Hit rule: 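Active when the per-plate z-score of cell number is 3 or more in the direction of fewer cells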
In all, the deposit lists about 21,000 reagents; this is a random part of those that have a named target and a result. In the full data, 429 (2%) were called active. 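Values are raw and not normalised between plates; calls rest on per-plate z-scores that were not deposited.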 A plus sign joins genes that one reagent is predicted to hit. The record does not give: the amount of reagent, the time to read-out.

The opening 6 entries as a preview:
predicted target	dsRNA	Kc cell number, rep 1	Kc cell number, rep 2	S2R+ cell number, rep 1	S2R+ cell number, rep 2	outcome
S2P (GeneID 36262)	DRSC07311	1.57e6	1.60e6	1.29e6	1.48e6	inactive
Hex-t1 (GeneID 117364)	DRSC16701	1.63e6	1.94e6	1.10e6	1.14e6	inactive
RfC3 (GeneID 34423)	DRSC03411	1.52e6	1.56e6	1.19e6	1.38e6	inactive
CG31253 + CG31131	DRSC13839	1.16e6	1.50e6	1.10e6	1.09e6	inactive
ptc (GeneID 35851)	DRSC05117	1.35e6	1.43e6	9.94e5	1.09e6	inactive
ptc (GeneID 35851)	DRSC07669	1.75e6	1.75e6	1.30e6	1.45e6	inactive

The list itself, from the first entry:
predicted target	dsRNA	Kc cell number, rep 1	Kc cell number, rep 2	S2R+ cell number, rep 1	S2R+ cell number, rep 2	outcome
S2P (GeneID 36262)	DRSC07311	1.57e6	1.60e6	1.29e6	1.48e6	inactive
Hex-t1 (GeneID 117364)	DRSC16701	1.63e6	1.94e6	1.10e6	1.14e6	inactive
RfC3 (GeneID 34423)	DRSC03411	1.52e6	1.56e6	1.19e6	1.38e6	inactive
CG31253 + CG31131	DRSC13839	1.16e6	1.50e6	1.10e6	1.09e6	inactive
ptc (GeneID 35851)	DRSC05117	1.35e6	1.43e6	9.94e5	1.09e6	inactive
ptc (GeneID 35851)	DRSC07669	1.75e6	1.75e6	1.30e6	1.45e6	inactive
CG14282 (GeneID 42301)	DRSC14763	1.42e6	1.37e6	1.08e6	1.14e6	inactive
CG14072 (GeneID 34513)	DRSC02375	1.54e6	1.62e6	1.24e6	1.44e6	inactive
CG12398 (GeneID 32422)	DRSC19454	1.52e6	1.55e6	1.02e6	1.17e6	inactive
CR14117 (GeneID 39473)	DRSC10121	1.51e6	1.52e6	1.38e6	1.56e6	inactive
CG33301 (GeneID 2768917)	DRSC02778	1.52e6	1.56e6	1.18e6	1.33e6	inactive
Alp8 (GeneID 37540)	DRSC04353	1.68e6	1.79e6	1.35e6	3.94e5	inactive
mRpL37 (GeneID 41293)	DRSC16062	1.27e6	1.29e6	1.09e6	1.21e6	inactive
Gclc (GeneID 53581)	DRSC18666	1.50e6	1.50e6	1.05e6	1.21e6	inactive
CG4297 (GeneID 33222)	DRSC00651	1.44e6	1.50e6	1.02e6	1.20e6	inactive
mam (GeneID 36555)	DRSC05468	6.59e5	6.20e5	4.27e5	5.53e5	active
mam (GeneID 36555)	DRSC07648	8.75e5	1.27e6	5.43e5	5.92e5	active
eIF4G1 (GeneID 43839)	DRSC17218	3.65e5		7.09e5		inactive
CG18171 (GeneID 38216)	DRSC08524	1.23e6	1.33e6	1.08e6	1.31e6	inactive
Vdup1 (GeneID 38023)	DRSC08586	1.30e6	1.00e6	1.05e6	1.16e6	inactive
Syx7 (GeneID 36173)	DRSC11763	1.52e6	1.56e6	1.21e6	1.23e6	inactive
Snx1 (GeneID 33560)	DRSC00531	1.47e6	1.45e6	1.11e6	1.28e6	inactive
CG10801 (GeneID 31314)	DRSC17761	1.52e6	1.57e6	1.09e6	1.29e6	inactive
Mocs2A + Mocs2B	DRSC14219	1.40e6	1.49e6	1.00e6	1.09e6	inactive
mRpL54 (GeneID 37389)	DRSC04545	1.35e6	1.42e6	9.22e5	1.06e6	inactive
GC1 (GeneID 41448)	DRSC15322	1.94e6	1.99e6	1.31e6	1.27e6	inactive
E2f2 (GeneID 35381)	DRSC03320	1.34e6	1.43e6	1.04e6	1.11e6	inactive
CG12206 (GeneID 31316)	DRSC17828	1.53e6	1.58e6	1.09e6	1.21e6	inactive
Sec63 (GeneID 38819)	DRSC11002	1.89e6	1.89e6	1.17e6	1.25e6	inactive
hng1 (GeneID 37412)	DRSC04555	1.45e6	1.52e6	1.17e6	1.24e6	inactive
kek1 (GeneID 34688)	DRSC03551	1.58e6	1.65e6	1.21e6	1.37e6	inactive
CG3308 (GeneID 42527)	DRSC15474	1.59e6	1.60e6	1.29e6	1.35e6	inactive
Ankle2 (GeneID 32732)	DRSC20105	1.63e6	1.69e6	8.81e5	1.00e6	inactive
Ankle2 (GeneID 32732)	DRSC20106	1.52e6	1.49e6	1.05e6	1.16e6	inactive
conv (GeneID 36588)	DRSC07213	1.53e6	1.47e6	1.19e6	1.24e6	inactive
RpS10a (GeneID 43321)	DRSC14161	5.48e5		8.35e5		inactive
UQCR-C1 (GeneID 41800)	DRSC15508	1.50e6	1.52e6	8.15e5	9.64e5	inactive
CG33784 (GeneID 3772181)	DRSC12764	1.38e6	1.50e6	1.05e6	1.22e6	inactive
Madm (GeneID 40710)	DRSC12129	1.26e6	1.32e6	1.17e6	1.25e6	inactive
SmydA-4 (GeneID 32034)	DRSC19390	1.45e6	1.45e6	1.02e6	1.16e6	inactive
CG11768 (GeneID 41046)	DRSC14377	1.59e6	1.73e6	1.19e6	1.37e6	inactive
CG7860 (GeneID 32488)	DRSC20060	5.50e5		8.55e5		inactive
Eph (GeneID 43803)	DRSC17164	1.79e6	1.82e6	1.11e6	1.24e6	inactive
eIF2Bbeta (GeneID 31256)	DRSC18465	1.62e6	1.65e6	1.02e6	1.17e6	inactive
pbl (GeneID 38879)	DRSC11381	1.38e6	1.43e6	1.29e6	1.24e6	inactive
Nil (GeneID 43185)	DRSC15953	1.86e6	1.81e6	1.06e6	1.15e6	inactive
CG8840 (GeneID 33557)	DRSC00713	1.61e6	1.30e6	1.11e6	1.27e6	inactive
TotF (GeneID 117461)	DRSC02305	1.57e6	1.63e6	1.31e6	2.65e5	inactive
Ski6 (GeneID 34721)	DRSC02491	1.64e6	1.64e6	1.26e6	1.42e6	inactive
mus201 + Chrac-14	DRSC03568	1.59e6	1.61e6	1.34e6	1.48e6	inactive
mus201 + Chrac-14	DRSC03575	1.53e6	1.68e6	1.29e6	1.53e6	inactive
CG17191 (GeneID 43249)	DRSC15185	1.54e6	1.56e6	1.02e6	1.21e6	inactive
brwl (GeneID 34275)	DRSC01080	1.34e6	1.27e6	8.41e5	9.37e5	inactive
brwl (GeneID 34275)	DRSC02729	1.33e6	1.39e6	1.03e6	1.07e6	inactive
Pfk (GeneID 36060)	DRSC07506	1.36e6	1.39e6	1.04e6	1.17e6	inactive
Usp39 (GeneID 32881)	DRSC20032	1.64e6	1.73e6	1.11e6	1.21e6	inactive
CG10973 (GeneID 39447)	DRSC09813	1.43e6	1.47e6	1.35e6	1.29e6	inactive
HPS1 (GeneID 36656)	DRSC06195	1.74e6	1.70e6	1.40e6	1.47e6	inactive
CG3556 (GeneID 31380)	DRSC18309	6.09e5		9.04e5		inactive
Pdi (GeneID 39651)	DRSC11250	1.38e6	1.47e6	1.18e6	1.29e6	inactive
CG17108 (GeneID 34471)	DRSC02576	1.55e6	1.57e6	1.16e6	1.29e6	inactive
CG14442 (GeneID 31609)	DRSC17935	5.13e5		7.53e5		inactive
beta-Man (GeneID 40524)	DRSC12208	1.48e6	1.50e6	1.31e6	1.40e6	inactive
beta-Man (GeneID 40524)	DRSC12209	1.33e6	1.36e6	1.35e6	1.43e6	inactive
east (GeneID 46006)	DRSC18770	1.29e6	1.38e6	7.98e5	9.20e5	inactive
CG43867 (GeneID 31031)	DRSC17582	1.29e6	1.45e6	1.17e6	1.11e6	inactive
CG43867 (GeneID 31031)	DRSC17836	1.62e6	1.61e6	1.03e6	1.12e6	inactive
CG43867 (GeneID 31031)	DRSC17837	1.66e6	1.70e6	9.82e5	1.15e6	inactive
CG43867 (GeneID 31031)	DRSC17943	1.44e6	1.45e6	1.03e6	1.06e6	inactive
Mrm2 (GeneID 42359)	DRSC14310	1.21e6	1.24e6	1.09e6	1.21e6	inactive
CG14050 (GeneID 31218)	DRSC18594	1.52e6	1.49e6	9.86e5	1.07e6	inactive
CG16837 (GeneID 37904)	DRSC04283	1.46e6	1.58e6	1.40e6	1.40e6	inactive
Tsp86D (GeneID 41310)	DRSC15607	1.60e6	1.69e6	1.40e6	1.52e6	inactive
Tmem214 (GeneID 34514)	DRSC02924	1.56e6	1.76e6	1.32e6	1.43e6	inactive
Tmem214 (GeneID 34514)	DRSC02925	1.72e6	1.80e6	1.38e6	1.50e6	inactive
